Measured values taken from article PMC4340053, “The DEAH-box Helicase Dhr1 Dissociates U3 from the Pre-rRNA to Promote Formation of the Central Pseudoknot” (PLoS Biology, 2015).
No constants are given. Whether binding was seen depends on the method and setting. In cells and extracts the contact can be indirect. Here binding means that the protein was enriched with, or labelled near, the bait; the list need not be complete. A no says only that the protein was not detected with the bait. Where a sequence is shown, tags or fusion partners need not be part of it.

Amino acid sequences for entries named in this document (tags omitted).
UniProt Q12499: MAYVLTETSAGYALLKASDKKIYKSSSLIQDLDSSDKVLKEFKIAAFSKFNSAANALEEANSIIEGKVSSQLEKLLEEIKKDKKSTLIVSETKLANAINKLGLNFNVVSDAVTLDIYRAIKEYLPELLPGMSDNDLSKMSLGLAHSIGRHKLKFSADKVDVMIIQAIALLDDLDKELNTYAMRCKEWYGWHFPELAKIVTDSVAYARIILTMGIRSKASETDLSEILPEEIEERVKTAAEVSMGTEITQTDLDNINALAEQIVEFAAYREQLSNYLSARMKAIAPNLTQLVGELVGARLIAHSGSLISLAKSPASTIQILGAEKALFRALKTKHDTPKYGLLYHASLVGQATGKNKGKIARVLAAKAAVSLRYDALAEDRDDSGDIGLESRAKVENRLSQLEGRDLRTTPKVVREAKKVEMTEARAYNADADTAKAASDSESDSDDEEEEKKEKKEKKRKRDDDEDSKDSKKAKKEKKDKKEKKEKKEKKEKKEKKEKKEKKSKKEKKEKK
UniProt P0CX29: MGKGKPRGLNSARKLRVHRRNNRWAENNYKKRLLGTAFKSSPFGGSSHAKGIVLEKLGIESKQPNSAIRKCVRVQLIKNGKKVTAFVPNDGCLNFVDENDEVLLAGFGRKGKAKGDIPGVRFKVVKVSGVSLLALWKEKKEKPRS
UniProt Q05022: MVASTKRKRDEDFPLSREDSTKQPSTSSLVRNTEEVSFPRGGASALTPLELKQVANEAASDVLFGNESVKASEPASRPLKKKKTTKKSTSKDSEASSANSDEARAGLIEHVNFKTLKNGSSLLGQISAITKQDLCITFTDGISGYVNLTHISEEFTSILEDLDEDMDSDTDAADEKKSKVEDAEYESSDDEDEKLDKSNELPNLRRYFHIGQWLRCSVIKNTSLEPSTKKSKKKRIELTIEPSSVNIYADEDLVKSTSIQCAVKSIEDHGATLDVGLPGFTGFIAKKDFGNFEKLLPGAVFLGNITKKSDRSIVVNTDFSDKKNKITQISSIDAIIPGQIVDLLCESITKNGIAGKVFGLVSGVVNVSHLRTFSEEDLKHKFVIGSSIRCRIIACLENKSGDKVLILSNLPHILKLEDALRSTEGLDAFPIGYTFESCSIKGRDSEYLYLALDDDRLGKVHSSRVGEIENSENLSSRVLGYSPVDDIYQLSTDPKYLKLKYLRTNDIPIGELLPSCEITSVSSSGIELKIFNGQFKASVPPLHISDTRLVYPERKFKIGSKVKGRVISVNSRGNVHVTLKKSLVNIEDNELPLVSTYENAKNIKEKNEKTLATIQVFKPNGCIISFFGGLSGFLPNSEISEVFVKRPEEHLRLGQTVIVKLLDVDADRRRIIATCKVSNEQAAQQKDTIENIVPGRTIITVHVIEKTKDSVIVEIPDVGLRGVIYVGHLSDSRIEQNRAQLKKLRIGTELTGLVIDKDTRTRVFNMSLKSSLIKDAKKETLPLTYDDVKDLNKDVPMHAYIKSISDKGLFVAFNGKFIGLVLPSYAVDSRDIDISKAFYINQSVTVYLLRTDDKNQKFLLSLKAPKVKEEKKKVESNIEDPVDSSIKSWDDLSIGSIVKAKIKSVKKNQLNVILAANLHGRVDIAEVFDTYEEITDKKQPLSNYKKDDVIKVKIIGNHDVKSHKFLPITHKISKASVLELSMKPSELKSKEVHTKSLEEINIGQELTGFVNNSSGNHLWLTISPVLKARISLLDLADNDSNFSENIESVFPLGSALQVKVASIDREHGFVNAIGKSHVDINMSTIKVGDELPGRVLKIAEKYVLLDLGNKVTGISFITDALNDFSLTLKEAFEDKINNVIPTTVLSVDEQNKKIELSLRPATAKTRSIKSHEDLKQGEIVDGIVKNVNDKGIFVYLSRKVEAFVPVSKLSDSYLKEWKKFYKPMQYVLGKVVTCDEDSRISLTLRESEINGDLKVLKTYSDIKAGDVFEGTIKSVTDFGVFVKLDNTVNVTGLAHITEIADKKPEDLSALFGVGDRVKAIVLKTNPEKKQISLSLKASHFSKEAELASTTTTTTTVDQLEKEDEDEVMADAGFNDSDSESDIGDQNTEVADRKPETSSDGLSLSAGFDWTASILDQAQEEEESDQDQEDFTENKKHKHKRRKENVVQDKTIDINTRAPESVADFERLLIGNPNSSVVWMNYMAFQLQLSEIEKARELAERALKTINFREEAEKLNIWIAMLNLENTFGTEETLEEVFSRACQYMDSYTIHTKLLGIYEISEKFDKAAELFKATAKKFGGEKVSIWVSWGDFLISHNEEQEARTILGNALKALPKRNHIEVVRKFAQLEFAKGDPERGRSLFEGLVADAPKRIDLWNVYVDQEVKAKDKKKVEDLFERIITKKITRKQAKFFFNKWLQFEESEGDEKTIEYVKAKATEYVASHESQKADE
UniProt Q12460: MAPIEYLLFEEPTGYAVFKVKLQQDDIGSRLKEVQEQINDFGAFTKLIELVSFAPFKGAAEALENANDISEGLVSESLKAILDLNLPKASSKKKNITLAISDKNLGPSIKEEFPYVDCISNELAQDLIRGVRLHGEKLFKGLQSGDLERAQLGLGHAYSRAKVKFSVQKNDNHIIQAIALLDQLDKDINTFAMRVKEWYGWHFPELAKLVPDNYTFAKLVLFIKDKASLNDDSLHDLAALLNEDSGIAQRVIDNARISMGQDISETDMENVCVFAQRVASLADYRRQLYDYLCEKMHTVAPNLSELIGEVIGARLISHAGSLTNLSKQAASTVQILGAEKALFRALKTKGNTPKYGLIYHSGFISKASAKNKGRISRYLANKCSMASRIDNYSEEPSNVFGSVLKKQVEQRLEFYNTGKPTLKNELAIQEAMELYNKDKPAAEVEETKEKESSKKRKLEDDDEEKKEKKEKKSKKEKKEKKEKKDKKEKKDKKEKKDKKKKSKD
UniProt P15646: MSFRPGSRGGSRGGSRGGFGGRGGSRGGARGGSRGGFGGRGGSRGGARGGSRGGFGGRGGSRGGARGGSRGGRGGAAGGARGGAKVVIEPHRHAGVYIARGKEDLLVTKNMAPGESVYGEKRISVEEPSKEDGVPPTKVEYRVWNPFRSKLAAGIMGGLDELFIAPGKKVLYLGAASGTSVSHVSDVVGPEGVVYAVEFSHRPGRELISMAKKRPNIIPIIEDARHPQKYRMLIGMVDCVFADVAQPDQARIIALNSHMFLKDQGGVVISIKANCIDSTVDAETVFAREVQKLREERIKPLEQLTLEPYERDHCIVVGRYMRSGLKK

T1: Dhr1_(K420A)-TEV-13myc (S. cerevisiae) (UniProt Q04217)
T1 sequence: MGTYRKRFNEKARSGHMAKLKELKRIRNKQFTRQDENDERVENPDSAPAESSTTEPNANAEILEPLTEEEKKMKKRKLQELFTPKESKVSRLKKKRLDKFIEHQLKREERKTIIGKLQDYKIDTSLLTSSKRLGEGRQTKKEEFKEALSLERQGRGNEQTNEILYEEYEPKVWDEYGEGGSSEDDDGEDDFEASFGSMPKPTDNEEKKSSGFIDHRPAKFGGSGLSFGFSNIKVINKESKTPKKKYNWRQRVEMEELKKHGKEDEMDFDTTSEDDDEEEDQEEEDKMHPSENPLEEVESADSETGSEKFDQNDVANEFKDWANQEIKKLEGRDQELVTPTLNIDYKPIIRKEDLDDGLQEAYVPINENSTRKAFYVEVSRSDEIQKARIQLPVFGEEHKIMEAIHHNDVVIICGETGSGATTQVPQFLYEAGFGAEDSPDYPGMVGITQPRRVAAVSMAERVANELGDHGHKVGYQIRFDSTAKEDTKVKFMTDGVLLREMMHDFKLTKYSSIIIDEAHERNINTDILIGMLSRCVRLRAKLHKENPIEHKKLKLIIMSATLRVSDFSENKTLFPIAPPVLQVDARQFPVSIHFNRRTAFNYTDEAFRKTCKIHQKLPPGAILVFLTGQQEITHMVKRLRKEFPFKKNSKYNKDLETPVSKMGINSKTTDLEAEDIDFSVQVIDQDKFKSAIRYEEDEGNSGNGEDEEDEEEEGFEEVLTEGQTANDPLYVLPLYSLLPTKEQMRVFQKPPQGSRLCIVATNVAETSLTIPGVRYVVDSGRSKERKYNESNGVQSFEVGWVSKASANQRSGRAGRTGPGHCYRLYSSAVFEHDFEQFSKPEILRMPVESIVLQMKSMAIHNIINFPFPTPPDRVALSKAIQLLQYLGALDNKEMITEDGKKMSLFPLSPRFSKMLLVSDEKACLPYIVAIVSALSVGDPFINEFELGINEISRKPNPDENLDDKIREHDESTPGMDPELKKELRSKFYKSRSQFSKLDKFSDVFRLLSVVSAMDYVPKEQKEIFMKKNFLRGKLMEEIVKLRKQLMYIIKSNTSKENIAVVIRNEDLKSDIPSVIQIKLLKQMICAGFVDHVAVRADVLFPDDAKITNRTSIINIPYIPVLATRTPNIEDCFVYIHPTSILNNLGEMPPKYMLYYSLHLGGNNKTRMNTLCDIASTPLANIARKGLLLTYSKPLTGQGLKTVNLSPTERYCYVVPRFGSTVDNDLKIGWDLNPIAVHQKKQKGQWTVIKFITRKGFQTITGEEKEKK

B1: Ltv1 (protein, UniProt P34078 1-463)
chain: MSKKFSSKNSQRYVVVHRPHDDPSFYDTDASAHVLVPVSNPNKTSPEADLRKKDVSSTKPKGRRAHVGEAALYGINFDDSEYDYTQHLKPIGLDPENSIFIASKGNEQKVEKKNIEDLFIEPKYRRDEIEKDDALPVFQRGMAKPEYLLHQQDTTDEIRGFKPDMNPALREVLEALEDEAYVVNDDVVVEDISKKTQLQGDNYGEEEKEDDIFAQLLGSGEAKDEDEFEDEFDEWDIDNVENFEDENYVKEMAQFDNIENLEDLENIDYQADVRRFQKDNSILEKHNSDDEFSNAGLDSVNPSEEEDVLGELPSIQDKSKTGKKKRKSRQKKGAMSDVSGFSMSSSAIARTETMTVLDDQYDQIINGYENYEEELEEDEEQNYQPFDMSAERSDFESMLDDFLDNYELESGGRKLAKKDKEIERLKEAADEVSKGKLSQRRNRERQEKKKLEKVTNTLSSLKF
B2: Mpp10 (protein, UniProt P47083 1-593)
chain: MSELFGVLKSNAGRIILKDPSATSKDVKAYIDSVINTCKNGSITKKAELDEITVDGLDANQVWWQVKLVLDSIDGDLIQGIQELKDVVTPSHNLSDGSTLNSSSGEESELEEAESVFKEKQMLSADVSEIEEQSNDSLSENDEEPSMDDEKTSAEAAREEFAEEKRISSGQDERHSSPDPYGINDKFFDLEKFNRDTLAAEDSNEASEGSEDEDIDYFQDMPSDDEEEEAIYYEDFFDKPTKEPVKKHSDVKDPKEDEELDEEEHDSAMDKVKLDLFADEEDEPNAEGVGEASDKNLSSFEKQQIEIRKQIEQLENEAVAEKKWSLKGEVKAKDRPEDALLTEELEFDRTAKPVPVITSEVTESLEDMIRRRIQDSNFDDLQRRTLLDITRKSQRPQFELSDVKSSKSLAEIYEDDYTRAEDESALSEELQKAHSEISELYANLVYKLDVLSSVHFVPKPASTSLEIRVETPTISMEDAQPLYMSNASSLAPQEIYNVGKAEKDGEIRLKNGVAMSKEELTREDKNRLRRALKRKRSKANLPNVNKRSKRNDVVDTLSKAKNITVINQKGEKKDVSGKTKKSRSGPDSTNIKL
B3: Rps3 (uS3) (protein, UniProt P05750 1-240)
chain: MVALISKKRKLVADGVFYAELNEFFTRELAEEGYSGVEVRVTPTKTEVIIRATRTQDVLGENGRRINELTLLVQKRFKYAPGTIVLYAERVQDRGLSAVAQAESMKFKLLNGLAIRRAAYGVVRYVMESGAKGCEVVVSGKLRAARAKAMKFADGFLIHSGQPVNDFIDTATRHVLMRQGVLGIKVKIMRDPAKSRTGPKALPDAVTIIEPKEEEPILAPSVKDYRPAEETEAQAEPVEA
B4: Imp3 (protein, UniProt P32899 1-183)
chain: MVRKLKHHEQKLLKKVDFLEWKQDQGHRDTQVMRTYHIQNREDYHKYNRICGDIRRLANKLSLLPPTDPFRRKHEQLLLDKLYAMGVLTTKSKISDLENKVTVSAICRRRLPVIMHRLKMAETIQDAVKFIEQGHVRVGPNLINDPAYLVTRNMEDYVTWVDNSKIKKTLLRYRNQIDDFDFS
B5: Rps2 (uS5) (protein, UniProt P25443 1-254)
chain: MSAPEAQQQKRGGFGGRNRGRPNRRGPRNTEEKGWVPVTKLGRLVKAGKITTIEEIFLHSLPVKEFQIIDTLLPGLQDEVMNIKPVQKQTRAGQRTRFKAVVVVGDSNGHVGLGIKTAKEVAGAIRAGIIIAKLSVIPIRRGYWGTNLGQPHSLATKTTGKCGSVTVRLIPAPRGSGIVASPAVKKLLQLAGVEDVYTQSNGKTRTLENTLKAAFVAIGNTYGFLTPNLWAEQPLPVSPLDIYSDEASAQKKRF
B6: putative A2 endonuclease Rcl1 (protein, UniProt Q08096 1-367)
chain: MSSSAPKYTTFQGSQNFRLRIVLATLSGKPIKIEKIRSGDLNPGLKDYEVSFLRLIESVTNGSVIEISYTGTTVIYRPGIIVGGASTHICPSSKPVGYFVEPMLYLAPFSKKKFSILFKGITASHNDAGIEAIKWGLMPVMEKFGVRECALHTLKRGSPPLGGGEVHLVVDSLIAQPITMHEIDRPIISSITGVAYSTRVSPSLVNRMIDGAKKVLKNLQCEVNITADVWRGENSGKSPGWGITLVAQSKQKGWSYFAEDIGDAGSIPEELGEKVACQLLEEISKSAAVGRNQLPLAIVYMVIGKEDIGRLRINKEQIDERFIILLRDIKKIFNTEVFLKPVDEADNEDMIATIKGIGFTNTSKKIA
B7: Imp4 (protein, UniProt P53941 1-290)
chain: MLRRQARERREYLYRKAQELQDSQLQQKRQIIKQALAQGKPLPKELAEDESLQKDFRYDQSLKESEEADDLQVDDEYAATSGIMDPRIIVTTSRDPSTRLSQFAKEIKLLFPNAVRLNRGNYVMPNLVDACKKSGTTDLVVLHEHRGVPTSLTISHFPHGPTAQFSLHNVVMRHDIINAGNQSEVNPHLIFDNFTTALGKRVVCILKHLFNAGPKKDSERVITFANRGDFISVRQHVYVRTREGVEIAEVGPRFEMRLFELRLGTLENKDADVEWQLRRFIRTANKKDYL
B8: GTPase Bms1 (protein, UniProt Q08965 1-1183)
chain: MEQSNKQHRKAKEKNTAKKKLHTQGHNAKAFAVAAPGKMARTMQRSSDVNERKLHVPMVDRTPEDDPPPFIVAVVGPPGTGKTTLIRSLVRRMTKSTLNDIQGPITVVSGKHRRLTFLECPADDLNAMIDIAKIADLVLLLIDGNFGFEMETMEFLNIAQHHGMPRVLGVATHLDLFKSQSTLRASKKRLKHRFWTEVYQGAKLFYLSGVINGRYPDREILNLSRFISVMKFRPLKWRNEHPYMLADRFTDLTHPELIETQGLQIDRKVAIYGYLHGTPLPSAPGTRVHIAGVGDFSVAQIEKLPDPCPTPFYQQKLDDFEREKMKEEAKANGEITTASTTRRRKRLDDKDKLIYAPMSDVGGVLMDKDAVYIDIGKKNEEPSFVPGQERGEGEKLMTGLQSVEQSIAEKFDGVGLQLFSNGTELHEVADHEGMDVESGEESIEDDEGKSKGRTSLRKPRIYGKPVQEEDADIDNLPSDEEPYTNDDDVQDSEPRMVEIDFNNTGEQGAEKLALETDSEFEESEDEFSWERTAANKLKKTESKKRTWNIGKLIYMDNISPEECIRRWRGEDDDSKDESDIEEDVDDDFFRKKDGTVTKEGNKDHAVDLEKFVPYFDTFEKLAKKWKSVDAIKERFLGAGILGNDNKTKSDSNEGGEELYGDFEDLEDGNPSEQAEDNSDKESEDEDENEDTNGDDDNSFTNFDAEEKKDLTMEQEREMNAAKKEKLRAQFEIEEGENFKEDDENNEYDTWYELQKAKISKQLEINNIEYQEMTPEQRQRIEGFKAGSYVRIVFEKVPMEFVKNFNPKFPIVMGGLLPTEIKFGIVKARLRRHRWHKKILKTNDPLVLSLGWRRFQTLPIYTTTDSRTRTRMLKYTPEHTYCNAAFYGPLCSPNTPFCGVQIVANSDTGNGFRIAATGIVEEIDVNIEIVKKLKLVGFPYKIFKNTAFIKDMFSSAMEVARFEGAQIKTVSGIRGEIKRALSKPEGHYRAAFEDKILMSDIVILRSWYPVRVKKFYNPVTSLLLKEKTEWKGLRLTGQIRAAMNLETPSNPDSAYHKIERVERHFNGLKVPKAVQKELPFKSQIHQMKPQKKKTYMAKRAVVLGGDEKKARSFIQKVLTISKAKDSKRKEQKASQRKERLKKLAKMEEEKSQRDKEKKKEYFAQNGKRTTMGGDDESRPRKMRR

Target: T1, Dhr1_(K420A)-TEV-13myc (S. cerevisiae)
Assay: affinity purification with mass spectrometry; Dhr1_(K420A)-TEV-13myc particle immunoprecipitated from yeast extract with anti-myc antibody on Protein-G magnetic beads (IP buffer 100 mM NaCl, 50 mM Tris-HCl pH 7.5, 1.5 mM MgCl2, 0.15% NP40), released with TEV at 16°C, pelleted through a 15% sucrose cushion, in-gel trypsin digestion, LTQ-Orbitrap; untagged Dhr1_(K420A) as mock

Row | binding | Molecule
1 | binds | Nop58 (from UniProt Q12499 1-511)
2 | no binding | Rps23 (uS12) (from UniProt P0CX29 1-145)
3 | binds | Rrp5 (from UniProt Q05022 1-1729)
4 | binds | Nop56 (from UniProt Q12460 1-504)
5 | binds | Nop1 (from UniProt P15646 1-327)
6 | no binding | B1
7 | binds | B2
8 | no binding | B3
9 | binds | B4
10 | no binding | B5
11 | binds | B6
12 | binds | B7
13 | binds | B8
